The list shows a part of the results. Residues, ends and D or L forms follow the SMILES beside them. *: point of attachment. Cbz = O=C(OCc1ccccc1)*
What was measured:
Assay in all cases: log2 fold change, soluble protein after heating vs DMSO (PISA); higher = thermal stabilisation; K562 cells, 10 uM, 30 min; active = over 0.2 and 3.5 SD of the protein, either way, in both replicates (recomputed)
erlotinib = compound: C#Cc1cccc(Nc2ncnc3cc(OCCOC)c(OCCOC)cc23)c1 [erlotinib]
Method in brief: (§1)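 K562 cells at 2×10^6 cells/mL were given 10 μM compound for 30 min. Aliquots then went through 3 min of heating across 48°C-58°C, were pooled, and were extracted in PBS with 0.5% NP-40 at 4°C, and the supernatant after 21,000xg for 90 min was quantified by TMTpro 16plex LC-MS/MS with channel sums equalised. Thermal stability relative to control samples, from duplicates, is given as log2 fold change.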

The chains behind the UniProt entries cited, without tags or fusion partners. Where a name states a change or a piece, a line headed by the entry shows the natural chain unless it says otherwise.
UniProt Q9BT73: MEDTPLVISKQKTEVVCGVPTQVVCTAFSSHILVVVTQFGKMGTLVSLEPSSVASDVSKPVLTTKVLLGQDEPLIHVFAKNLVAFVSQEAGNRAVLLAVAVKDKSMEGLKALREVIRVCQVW
UniProt Q96QR8: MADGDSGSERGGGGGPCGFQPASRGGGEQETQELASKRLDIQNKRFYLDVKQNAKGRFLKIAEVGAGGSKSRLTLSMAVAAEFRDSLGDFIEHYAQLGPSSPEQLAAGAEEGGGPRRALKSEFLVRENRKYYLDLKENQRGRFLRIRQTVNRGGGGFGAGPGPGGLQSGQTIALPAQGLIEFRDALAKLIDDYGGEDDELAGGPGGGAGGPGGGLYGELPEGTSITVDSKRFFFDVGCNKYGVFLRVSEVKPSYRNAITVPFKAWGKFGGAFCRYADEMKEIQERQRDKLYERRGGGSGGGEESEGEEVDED
UniProt P18031: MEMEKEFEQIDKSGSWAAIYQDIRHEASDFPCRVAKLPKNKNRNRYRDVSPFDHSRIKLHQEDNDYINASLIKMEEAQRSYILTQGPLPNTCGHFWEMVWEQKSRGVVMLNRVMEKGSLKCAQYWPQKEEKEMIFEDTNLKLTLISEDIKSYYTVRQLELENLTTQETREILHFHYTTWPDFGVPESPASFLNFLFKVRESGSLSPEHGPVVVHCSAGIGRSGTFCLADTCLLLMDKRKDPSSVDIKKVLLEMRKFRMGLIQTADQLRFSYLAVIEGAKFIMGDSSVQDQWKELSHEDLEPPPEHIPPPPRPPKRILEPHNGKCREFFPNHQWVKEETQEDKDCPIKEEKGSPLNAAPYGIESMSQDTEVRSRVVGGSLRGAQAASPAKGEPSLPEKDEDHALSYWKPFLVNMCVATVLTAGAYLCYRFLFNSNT
UniProt Q8TBF2: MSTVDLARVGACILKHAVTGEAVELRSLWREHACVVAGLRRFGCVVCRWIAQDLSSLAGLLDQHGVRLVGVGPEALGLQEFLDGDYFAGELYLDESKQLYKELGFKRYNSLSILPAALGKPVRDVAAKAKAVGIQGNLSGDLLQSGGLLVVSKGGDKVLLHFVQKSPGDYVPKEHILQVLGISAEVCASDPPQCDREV
UniProt P49720: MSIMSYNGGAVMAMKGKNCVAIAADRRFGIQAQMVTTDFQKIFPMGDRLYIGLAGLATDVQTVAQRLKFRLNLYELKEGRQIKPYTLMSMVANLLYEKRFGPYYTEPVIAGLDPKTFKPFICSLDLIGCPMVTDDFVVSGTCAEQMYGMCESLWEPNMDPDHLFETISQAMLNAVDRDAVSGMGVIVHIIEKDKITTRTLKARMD
UniProt Q99436: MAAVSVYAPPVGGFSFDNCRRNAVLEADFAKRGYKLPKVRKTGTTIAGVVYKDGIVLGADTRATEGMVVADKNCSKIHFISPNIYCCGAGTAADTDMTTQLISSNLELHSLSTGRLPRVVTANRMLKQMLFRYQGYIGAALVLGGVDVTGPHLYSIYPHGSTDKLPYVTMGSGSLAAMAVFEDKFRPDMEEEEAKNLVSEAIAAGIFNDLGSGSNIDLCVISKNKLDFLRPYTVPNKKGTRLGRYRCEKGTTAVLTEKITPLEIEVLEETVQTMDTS
UniProt Q9BZE2: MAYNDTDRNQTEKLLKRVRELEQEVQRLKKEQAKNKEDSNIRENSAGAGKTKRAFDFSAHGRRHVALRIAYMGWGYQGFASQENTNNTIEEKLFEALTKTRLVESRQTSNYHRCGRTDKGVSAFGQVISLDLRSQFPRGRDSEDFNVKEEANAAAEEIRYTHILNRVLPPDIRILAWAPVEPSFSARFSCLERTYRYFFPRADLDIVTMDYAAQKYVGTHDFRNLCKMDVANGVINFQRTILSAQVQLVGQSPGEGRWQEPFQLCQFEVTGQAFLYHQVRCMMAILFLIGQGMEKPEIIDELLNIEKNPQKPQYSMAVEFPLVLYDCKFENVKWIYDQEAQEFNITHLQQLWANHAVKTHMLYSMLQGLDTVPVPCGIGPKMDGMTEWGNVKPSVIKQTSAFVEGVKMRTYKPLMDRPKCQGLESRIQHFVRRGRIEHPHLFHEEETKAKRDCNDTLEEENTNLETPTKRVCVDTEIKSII
UniProt P25789: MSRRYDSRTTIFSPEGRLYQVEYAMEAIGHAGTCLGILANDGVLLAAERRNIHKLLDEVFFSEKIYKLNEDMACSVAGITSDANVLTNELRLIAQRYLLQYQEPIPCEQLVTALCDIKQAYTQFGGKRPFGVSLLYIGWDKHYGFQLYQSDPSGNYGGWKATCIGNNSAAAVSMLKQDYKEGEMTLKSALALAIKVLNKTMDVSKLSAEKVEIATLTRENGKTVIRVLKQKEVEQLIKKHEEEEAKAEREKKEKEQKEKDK
UniProt Q7Z6K3: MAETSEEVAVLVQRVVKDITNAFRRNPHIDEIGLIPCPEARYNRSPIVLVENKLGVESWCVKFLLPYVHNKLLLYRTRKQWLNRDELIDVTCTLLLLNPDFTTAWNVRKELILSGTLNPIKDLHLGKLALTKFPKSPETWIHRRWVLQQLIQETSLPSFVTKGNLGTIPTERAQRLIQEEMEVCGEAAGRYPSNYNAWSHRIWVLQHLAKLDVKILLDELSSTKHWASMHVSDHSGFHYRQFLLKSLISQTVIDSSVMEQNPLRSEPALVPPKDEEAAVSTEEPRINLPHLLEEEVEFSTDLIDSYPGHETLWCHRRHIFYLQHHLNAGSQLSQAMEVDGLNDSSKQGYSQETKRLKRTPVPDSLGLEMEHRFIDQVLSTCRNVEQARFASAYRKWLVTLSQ
UniProt Q96C36: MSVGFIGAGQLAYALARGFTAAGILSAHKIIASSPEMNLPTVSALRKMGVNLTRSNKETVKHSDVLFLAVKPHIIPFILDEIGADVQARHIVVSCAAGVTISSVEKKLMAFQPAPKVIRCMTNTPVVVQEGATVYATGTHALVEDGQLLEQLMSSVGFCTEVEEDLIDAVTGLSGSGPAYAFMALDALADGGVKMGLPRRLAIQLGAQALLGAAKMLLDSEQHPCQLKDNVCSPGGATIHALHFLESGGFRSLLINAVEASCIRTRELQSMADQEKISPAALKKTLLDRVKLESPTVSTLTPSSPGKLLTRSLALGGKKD
UniProt Q15274: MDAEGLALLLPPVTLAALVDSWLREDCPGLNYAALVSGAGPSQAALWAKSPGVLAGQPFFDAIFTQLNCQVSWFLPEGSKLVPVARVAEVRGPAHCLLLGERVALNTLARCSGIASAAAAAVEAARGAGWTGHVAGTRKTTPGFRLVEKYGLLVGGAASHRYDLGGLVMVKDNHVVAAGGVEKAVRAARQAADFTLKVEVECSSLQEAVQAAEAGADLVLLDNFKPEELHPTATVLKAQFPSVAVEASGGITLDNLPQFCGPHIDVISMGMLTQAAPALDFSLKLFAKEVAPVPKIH
UniProt P49721: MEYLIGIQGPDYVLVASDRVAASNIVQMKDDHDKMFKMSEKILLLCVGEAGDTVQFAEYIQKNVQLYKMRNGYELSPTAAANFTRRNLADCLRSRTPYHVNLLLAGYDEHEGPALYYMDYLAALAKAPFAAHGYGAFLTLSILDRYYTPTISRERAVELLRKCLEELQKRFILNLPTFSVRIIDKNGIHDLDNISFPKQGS
UniProt Q53H96: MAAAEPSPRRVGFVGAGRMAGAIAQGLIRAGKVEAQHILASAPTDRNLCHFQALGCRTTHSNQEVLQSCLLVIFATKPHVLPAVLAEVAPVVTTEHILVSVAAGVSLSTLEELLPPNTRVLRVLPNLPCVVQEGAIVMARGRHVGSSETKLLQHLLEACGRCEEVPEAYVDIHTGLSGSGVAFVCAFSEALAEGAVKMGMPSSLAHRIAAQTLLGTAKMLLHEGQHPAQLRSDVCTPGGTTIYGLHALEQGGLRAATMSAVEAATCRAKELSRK
UniProt Q8WU10: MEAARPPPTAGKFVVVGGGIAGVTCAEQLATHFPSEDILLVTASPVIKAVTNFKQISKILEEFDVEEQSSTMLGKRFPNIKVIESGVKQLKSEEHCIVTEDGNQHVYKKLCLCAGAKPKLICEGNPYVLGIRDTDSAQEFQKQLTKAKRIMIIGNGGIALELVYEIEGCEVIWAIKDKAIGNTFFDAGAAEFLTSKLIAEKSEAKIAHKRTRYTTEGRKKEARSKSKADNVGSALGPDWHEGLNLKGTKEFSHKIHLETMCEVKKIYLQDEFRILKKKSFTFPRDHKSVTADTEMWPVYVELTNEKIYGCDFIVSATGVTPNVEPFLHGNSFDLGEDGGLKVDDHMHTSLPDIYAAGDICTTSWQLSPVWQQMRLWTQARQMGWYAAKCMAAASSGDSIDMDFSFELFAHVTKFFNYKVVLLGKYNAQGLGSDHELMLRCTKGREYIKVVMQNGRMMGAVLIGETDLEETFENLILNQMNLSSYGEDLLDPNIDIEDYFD
UniProt Q6PGN9: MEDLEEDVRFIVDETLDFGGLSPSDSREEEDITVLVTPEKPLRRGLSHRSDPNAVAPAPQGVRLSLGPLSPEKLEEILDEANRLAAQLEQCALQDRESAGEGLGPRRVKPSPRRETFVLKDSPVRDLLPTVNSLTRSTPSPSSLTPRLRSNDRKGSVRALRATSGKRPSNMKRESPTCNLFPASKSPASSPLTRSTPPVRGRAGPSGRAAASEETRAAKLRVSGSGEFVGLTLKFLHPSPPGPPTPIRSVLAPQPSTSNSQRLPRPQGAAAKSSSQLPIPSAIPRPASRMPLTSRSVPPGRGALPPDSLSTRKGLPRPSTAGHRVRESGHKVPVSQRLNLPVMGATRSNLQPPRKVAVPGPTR
UniProt Q9H939: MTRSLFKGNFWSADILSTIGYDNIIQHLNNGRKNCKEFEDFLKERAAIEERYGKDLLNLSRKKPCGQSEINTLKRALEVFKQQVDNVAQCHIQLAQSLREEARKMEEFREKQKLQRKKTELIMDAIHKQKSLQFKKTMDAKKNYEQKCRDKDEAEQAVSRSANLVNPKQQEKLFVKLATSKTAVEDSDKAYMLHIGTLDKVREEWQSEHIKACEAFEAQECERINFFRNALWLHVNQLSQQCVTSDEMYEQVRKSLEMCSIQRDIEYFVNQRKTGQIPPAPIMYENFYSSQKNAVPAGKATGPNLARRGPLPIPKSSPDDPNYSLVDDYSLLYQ

[1] = compound: C/C(=N\NC(=O)C1=CC(=CC=C1)S(=O)(=O)N2CCOCC2)/C3=C(C=CC(=C3)Cl)O
Method in brief: as §1

[2] = compound: C1=CC(=C(C=C1Cl)C2=NC3=NC=CN=C3C(=N2)NC4=CC=NC=C4)F
Method in brief: as §1

[3] = compound: C1=CC(=CC=C1C2=NC3=C(N2)C=C(C=C3)C(=O)N)OC4=CC=C(C=C4)Cl
Method in brief: as §1

[4] = compound: C1=CC2=C(C=CC(=C2)/C=C\3/C(=O)NC(=NCC4=CC=CS4)S3)N=C1
Method in brief: as §1

[5] = compound: C1=CC2=NC=CN=C2C=C1/C=C/3\C(=O)NC(=O)S3
Method in brief: as §1

[6] = compound: C1=CC=C(C=C1)C2=NC(=C(N2)C3=CC=NC=C3)C4=CC(=C(C=C4)Cl)O
Method in brief: as §1

[7] = compound: C1=CC=C2C(=C1)C3=NNC4=CC=CC(=C43)C2=O
Method in brief: as §1

[8] = compound: C1CCN(C1)C(=O)NC2=CC=CC(=C2)NC3=NC=C(C(=N3)NCCC4=CN=CN4)Br
Method in brief: as §1

[9] = compound: C1CN(CCC1(CC2=CC=C(C=C2)Cl)N)C3=NC=NC4=C3C=CN4
Method in brief: as §1

IRAK-1-4 Inhibitor I = compound: C1COCCN1CCN2C3=CC=CC=C3N=C2NC(=O)C4=CC(=CC=C4)[N+](=O)[O-] [IRAK-1-4 Inhibitor I]
Method in brief: as §1

ibrutinib = compound: C=CC(=O)N1CCC[C@@H](n2nc(-c3ccc(Oc4ccccc4)cc3)c3c(N)ncnc32)C1 [ibrutinib]
Method in brief: as §1

[10] = compound: CC(=O)c1cnc2ccc(-c3cc(Cl)c(O)c(Cl)c3)nc2c1N[C@H]1CC[C@H](CN(C)C)CC1
Method in brief: as §1

ralimetinib = compound: CC(C)(C)Cn1c(N)nc2ccc(-c3[nH]c(C(C)(C)C)nc3-c3ccc(F)cc3)nc21 [ralimetinib]
Method in brief: as §1

[11] = compound: CC(C)(O)CC(=O)NCCn1ccc2ncnc(Nc3ccc(Oc4cccc(C(F)(F)F)c4)c(Cl)c3)c21
Method in brief: as §1

[12] = compound: CC(C)C1=C2N=C(C=C(N2N=C1)NCC3=CC=CC=C3)NCCCCCCN
Method in brief: as §1

[13] = compound: CC(C)C[C@@H](C=O)NC(=O)[C@H](CC(C)C)NC(=O)[C@H](CC(C)C)NC(=O)OCc1ccccc1
Method in brief: as §1

pinometostat = compound: CC(C)N(C[C@H]1O[C@@H](n2cnc3c(N)ncnc32)[C@H](O)[C@@H]1O)[C@H]1C[C@@H](CCc2nc3cc(C(C)(C)C)ccc3[nH]2)C1 [pinometostat]
Method in brief: as §1

[14] = compound: CC1=C(C(CC(=O)N1)C2=CC=C(C=C2)C(F)(F)F)C(=O)NC3=C(C=C4C(=C3)C=NN4)F
Method in brief: as §1

[15] = compound: CC1=C(C2=C(C=C1)C(=O)C3=CC=CC=C3N2CCCN)C
Method in brief: as §1

Measured: log2 fold change

PSMG3 (UniProt Q9BT73)
inactive: erlotinib 0.003 | [1] 0.033 | [2] -0.049 | [3] 0.066 | [4] 0.038 | [5] -0.05 | [6] 0.067 | [7] -0.022 | [8] -0.031 | [9] 0.099 | IRAK-1-4 Inhibitor I 0.015 | ibrutinib 0.025 | [10] -0.074 | ralimetinib 0.003 | [11] 0.014 | [12] 0 | [13] -0.032 | pinometostat 0.026 | [14] -0.042 | [15] 0.039

PURB (UniProt Q96QR8)
inactive: erlotinib -0.106 | [1] -0.123 | [2] -0.534 | [3] 0.016 | [4] -0.023 | [5] -0.014 | [6] -0.212 | [7] -0.024 | [8] 0.058 | [9] -0.251 | IRAK-1-4 Inhibitor I -0.182 | ibrutinib 0.076 | [10] 0.047 | ralimetinib 0.014 | [11] 0.147 | [12] 0.101 | [13] 0.095 | pinometostat 0.221 | [14] 0.042 | [15] -0.636

PTPN1 (UniProt P18031)
inactive: erlotinib 0.079 | [1] 0.062 | [2] -0.115 | [3] -0.054 | [4] 0.054 | [5] 0 | [6] -0.024 | [7] 0.027 | [8] -0.091 | [9] -0.08 | IRAK-1-4 Inhibitor I -0.218 | ibrutinib -0.094 | [10] -0.075 | ralimetinib 0.06 | [11] -0.008 | [12] -0.114 | [13] 0.077 | pinometostat 0.18 | [14] -0.002 | [15] 0.036

PRXL2B isoform 3 (UniProt Q8TBF2)
inactive: erlotinib 0.029 | [1] -0.096 | [2] 0.058 | [3] 0.012 | [4] -0.005 | [5] 0.071 | [6] 0.088 | [7] -0.036 | [8] -0.032 | [9] 0.063 | IRAK-1-4 Inhibitor I 0.077 | ibrutinib -0.131 | [10] 0.042 | ralimetinib -0.032 | [11] -0.12 | [12] 0.081 | [13] -0.062 | pinometostat -0.086 | [14] -0.033 | [15] 0.078

PSMB3 (UniProt P49720)
inactive: erlotinib -0.066 | [1] -0.028 | [2] 0.055 | [3] 0.045 | [4] -0.075 | [5] 0.002 | [6] -0.012 | [7] 0.011 | [8] 0.017 | [9] 0.075 | IRAK-1-4 Inhibitor I -0.02 | ibrutinib 0.011 | [10] 0.086 | ralimetinib -0.031 | [11] 0.046 | [12] 0.122 | [13] -0.147 | pinometostat 0.027 | [14] 0.108 | [15] -0.067

PSMB7 (UniProt Q99436)
inactive: erlotinib -0.021 | [1] -0.054 | [2] -0.021 | [3] -0.008 | [4] -0.022 | [5] -0.009 | [6] 0.044 | [7] 0.012 | [8] 0.01 | [9] 0.022 | IRAK-1-4 Inhibitor I -0.003 | ibrutinib 0.019 | [10] 0.056 | ralimetinib 0.012 | [11] 0.045 | [12] 0.07 | [13] -0.063 | pinometostat 0.004 | [14] 0.005 | [15] -0.033

PUS3 (UniProt Q9BZE2)
inactive: erlotinib 0.002 | [1] 0.149 | [2] 0.027 | [3] 0.049 | [4] 0.067 | [5] 0.023 | [6] -0.157 | [7] -0.013 | [8] -0.018 | [9] 0.072 | IRAK-1-4 Inhibitor I 0.004 | ibrutinib -0.061 | [10] -0.104 | ralimetinib -0.117 | [11] -0.023 | [12] -0.064 | [13] 0.021 | pinometostat -0.039 | [14] 0.084 | [15] -0.078

PSMA4 (UniProt P25789)
inactive: erlotinib -0.08 | [1] -0.04 | [2] 0.077 | [3] 0.003 | [4] -0.052 | [5] 0.055 | [6] -0.02 | [7] 0.02 | [8] 0.001 | [9] 0.023 | IRAK-1-4 Inhibitor I -0.015 | ibrutinib -0.042 | [10] 0.08 | ralimetinib 0.014 | [11] 0.017 | [12] 0.098 | [13] -0.108 | pinometostat -0.007 | [14] 0.038 | [15] -0.012

PTAR1 (UniProt Q7Z6K3)
inactive: erlotinib 0.028 | [1] 0.166 | [2] -0.078 | [3] 0.059 | [4] -0.003 | [5] -0.025 | [6] -0.025 | [7] 0.044 | [8] -0.023 | [9] 0.126 | IRAK-1-4 Inhibitor I 0.06 | ibrutinib 0.066 | [10] -0.082 | ralimetinib -0.069 | [11] -0.035 | [12] 0.003 | [13] 0.037 | pinometostat -0.034 | [14] -0.024 | [15] -0.055

PYCR2 (UniProt Q96C36)
inactive: erlotinib -0.019 | [1] 0.004 | [2] 0.037 | [3] 0.01 | [4] -0.024 | [5] -0.022 | [6] 0.033 | [7] 0.01 | [8] 0.005 | [9] 0.017 | IRAK-1-4 Inhibitor I -0.002 | ibrutinib 0.021 | [10] 0.002 | ralimetinib -0.009 | [11] -0.011 | [12] 0.008 | [13] -0.017 | pinometostat -0.086 | [14] -0.017 | [15] -0.006

QPRT (UniProt Q15274)
inactive: erlotinib 0.035 | [1] 0.005 | [2] 0.057 | [3] 0.011 | [4] 0.04 | [5] 0.004 | [6] 0.048 | [7] -0.029 | [8] -0.015 | [9] 0.033 | IRAK-1-4 Inhibitor I 0.016 | ibrutinib 0.006 | [10] 0.008 | ralimetinib -0.043 | [11] 0.004 | [12] 0.048 | [13] -0.042 | pinometostat -0.027 | [14] 0.019 | [15] 0

Two entries picked at random from those above, as already listed:
PSMG3 (UniProt Q9BT73)
inactive: erlotinib 0.003 | [1] 0.033 | [2] -0.049 | [3] 0.066 | [4] 0.038 | [5] -0.05 | [6] 0.067 | [7] -0.022 | [8] -0.031 | [9] 0.099 | IRAK-1-4 Inhibitor I 0.015 | ibrutinib 0.025 | [10] -0.074 | ralimetinib 0.003 | [11] 0.014 | [12] 0 | [13] -0.032 | pinometostat 0.026 | [14] -0.042 | [15] 0.039

PUS3 (UniProt Q9BZE2)
inactive: erlotinib 0.002 | [1] 0.149 | [2] 0.027 | [3] 0.049 | [4] 0.067 | [5] 0.023 | [6] -0.157 | [7] -0.013 | [8] -0.018 | [9] 0.072 | IRAK-1-4 Inhibitor I 0.004 | ibrutinib -0.061 | [10] -0.104 | ralimetinib -0.117 | [11] -0.023 | [12] -0.064 | [13] 0.021 | pinometostat -0.039 | [14] 0.084 | [15] -0.078

The listing continues:

PSMB2 (UniProt P49721)
inactive: erlotinib -0.076 | [1] -0.032 | [2] -0.003 | [3] -0.02 | [4] -0.024 | [5] 0.063 | [6] 0.075 | [7] 0.019 | [8] 0.003 | [9] 0.006 | IRAK-1-4 Inhibitor I -0.039 | ibrutinib -0.009 | [10] 0.052 | ralimetinib 0.001 | [11] -0.047 | [12] 0.062 | [13] -0.086 | pinometostat -0.007 | [14] 0.058 | [15] 0.013

PYCR3 (UniProt Q53H96)
inactive: erlotinib 0.015 | [1] 0 | [2] 0.061 | [3] 0.029 | [4] 0.012 | [5] 0.025 | [6] -0.007 | [7] -0.031 | [8] -0.01 | [9] 0.036 | IRAK-1-4 Inhibitor I -0.024 | ibrutinib 0.042 | [10] 0.008 | ralimetinib 0 | [11] -0.057 | [12] 0.119 | [13] -0.01 | pinometostat -0.036 | [14] 0.011 | [15] 0.037

PYROXD1 (UniProt Q8WU10)
inactive: erlotinib 0.073 | [1] 0.139 | [2] -0.088 | [3] -0.093 | [4] 0.185 | [5] 0.084 | [6] 0.457 | [7] 0.003 | [8] -0.012 | [9] -0.016 | IRAK-1-4 Inhibitor I 0.118 | ibrutinib -0.079 | [10] -0.082 | ralimetinib 0.025 | [11] 0.023 | [12] -0.035 | [13] -0.009 | pinometostat 0.019 | [14] 0.002 | [15] 0.017

PSRC1 (UniProt Q6PGN9)
inactive: erlotinib 0.066 | [1] -0.044 | [2] 0.039 | [3] 0 | [4] 0.028 | [5] 0.042 | [6] 0.067 | [7] 0.016 | [8] 0.013 | [9] -0.087 | IRAK-1-4 Inhibitor I -0.041 | ibrutinib 0.035 | [10] -0.076 | ralimetinib 0.162 | [11] 0.027 | [12] -0.178 | [13] 0.246 | pinometostat 0.106 | [14] 0.026 | [15] 0.005

PSTPIP2 (UniProt Q9H939)
inactive: erlotinib -0.015 | [1] -0.025 | [2] -0.015 | [3] 0.014 | [4] -0.056 | [5] 0.07 | [6] -0.009 | [7] 0.047 | [8] -0.018 | [9] 0.004 | IRAK-1-4 Inhibitor I -0.044 | ibrutinib -0.068 | [10] 0.016 | ralimetinib 0.046 | [11] 0.054 | [12] 0.008 | [13] 0.064 | pinometostat 0.017 | [14] -0.03 | [15] 0.041
